The values below come from patent publication US20060058505A1, “Nucleic acid and polypeptide linked to breast cancer and uses therefor” (priority 2001, published 2006).

The target in this assay is T1, His-tagged N-terminal domain of rasGAP^120 (amino acids 1-356, includes the full SH3 domain) (UniProt P20936).
T1 sequence (looked up): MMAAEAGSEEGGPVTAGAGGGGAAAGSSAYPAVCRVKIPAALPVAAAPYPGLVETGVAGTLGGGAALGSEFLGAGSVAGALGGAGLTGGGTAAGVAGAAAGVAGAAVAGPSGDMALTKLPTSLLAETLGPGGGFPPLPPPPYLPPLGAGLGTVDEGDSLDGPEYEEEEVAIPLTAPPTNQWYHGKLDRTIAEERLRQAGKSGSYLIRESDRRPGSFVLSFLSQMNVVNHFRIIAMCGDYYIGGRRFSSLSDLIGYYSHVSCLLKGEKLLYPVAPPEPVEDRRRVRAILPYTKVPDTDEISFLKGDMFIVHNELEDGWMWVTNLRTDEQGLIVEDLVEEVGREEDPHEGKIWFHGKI
As to the kind of experiment: GST bead binding assay, anti-His Western blot. (In general: A western blot detects proteins with antibodies after separation by electrophoresis.)

No constants are given. Whether binding was seen depends on the method and setting. Some results given as binding are weak or reduced against the parent protein; the word gives no strength. Where a sequence is shown, tags or fusion partners need not be part of it.

As for “GST fusion full length G3BP-1 (from UniProt Q13283 1-466)”, the binding result is “binds”.

B1: GST fusion full length G3BP-2a (protein, not shown: a dimerising Fc or GST)
chain: MVMEKPSPLLVGREFVRQYYTLLNKAPEYLHRFYGRNSSYVHGGVDASGKPQEAVYGQNDIHHKVLSLNFSECHTKIRHVDAHATLSDGVVVQVMGLLSNSGQPERKFMQTFVLAPEGSVPNKFYVHNDMFRYEDEVFGDSEPELDEESEDEVEEEQEERQPSPEPVQENANSGYYEAHPVTNGIEEPLEESSHEPEPEPESETKTEELKPQVEEKNLEELEEKSTTPPPAEPVSLPQEPPKAFSWASVTSKNLPPSGTVSSSGIPSHVKAPVSQPRVEAKPEVQSQPPRVREQRPRERPGFPPRGPRPGRGDMEQNDSDNRRIIRYPDSHQLFVGNLPHDIDENELKEFFMSFGNVVELRINTKGVGGKLPNFGFVVFDDSEPVQRILIAKPIMFRGEVRLNVEEKKTRAARERETRGGGDDRRDIRRNDRGPGGPRGIVGGGMMRDRDGRGPPPRGGMAQKLGSGRGTGQMEGRFTGQRR
Consider B1, for which the binding entry was “binds”.

B2: δ-2a-N146 (GST fusion of G3BP-2a N-terminal amino acids 1 to 146, the NTF2-like domain) (protein, not shown: a dimerising Fc or GST; large carriers; small tags and cut ends)
chain: MVMEKPSPLLVGREFVRQYYTLLNKAPEYLHRFYGRNSSYVHGGVDASGKPQEAVYGQNDIHHKVLSLNFSECHTKIRHVDAHATLSDGVVVQVMGLLSNSGQPERKFMQTFVLAPEGSVPNKFYVHNDMFRYEDEVFGDSEPELD
With B2, the binding entry was “binds”.
